Results: paper doi:10.1101/2025.02.14.637896 (bioRxiv, 2025)
Positions count from the first letter of the chain named. Names and notes keep the numbering of the source. Results are given in words; binding and its absence hold for the method and conditions named. Some results given as binding are weak or reduced against the parent protein; the word gives no strength. One block for each binder: values may come before it.

How the values were obtained:
[1] = target: GIRK2 R92F channel (G protein-gated inwardly rectifying potassium channel 2, R92F substitution) (mouse) (UniProt P48542); experiment: cryo-EM structure
[2] = target: GIRK2 R92Q channel (G protein-gated inwardly rectifying potassium channel 2, R92Q substitution) (mouse) (UniProt P48542); experiment: cryo-EM structure

- binding [1]: binds
B1: GIRK2 R92F channel (G protein-gated inwardly rectifying potassium channel 2, R92F substitution) (natural protein, mouse, UniProt P48542 1-425, looked up)
chain: MTMAKLTESMTNVLEGDSMDQDVESPVAIHQPKLPKQARDDLPRHISRDRTKRKIQRYVRKDGKCNVHHGNVRETYRYLTDIFTTLVDLKWFFNLLIFVMVYTVTWLFFGMIWWLIAYIRGDMDHIEDPSWTPCVTNLNGFVSAFLFSIETETTIGYGYRVITDKCPEGIILLLIQSVLGSIVNAFMVGCMFVKISQPKKRAETLVFSTHAVISMRDGKLCLMFRVGDLRNSHIVEASIRAKLIKSKQTSEGEFIPLNQSDINVGYYTGDDRLFLVSPLIISHEINQQSPFWEISKAQLPKEELEIVVILEGIVEATGMTCQARSSYITSEILWGYRFTPVLTMEDGFYEVDYNSFHETYETSTPSLSAKELAELANRAEVPLSWSVSSKLNQHAELETEEEEKNPEELTERNGDVANLENESKV

- binding [2]: binds
B2: GIRK2 R92Q channel (G protein-gated inwardly rectifying potassium channel 2, R92Q substitution) (protein, UniProt P48542 1-425)
chain: B1 chain with F92Q
